1 substance from paper PMC4924659 can be followed below.

Chains of the proteins cited; added tags and fusions are not shown.
UniProt Q96EB6: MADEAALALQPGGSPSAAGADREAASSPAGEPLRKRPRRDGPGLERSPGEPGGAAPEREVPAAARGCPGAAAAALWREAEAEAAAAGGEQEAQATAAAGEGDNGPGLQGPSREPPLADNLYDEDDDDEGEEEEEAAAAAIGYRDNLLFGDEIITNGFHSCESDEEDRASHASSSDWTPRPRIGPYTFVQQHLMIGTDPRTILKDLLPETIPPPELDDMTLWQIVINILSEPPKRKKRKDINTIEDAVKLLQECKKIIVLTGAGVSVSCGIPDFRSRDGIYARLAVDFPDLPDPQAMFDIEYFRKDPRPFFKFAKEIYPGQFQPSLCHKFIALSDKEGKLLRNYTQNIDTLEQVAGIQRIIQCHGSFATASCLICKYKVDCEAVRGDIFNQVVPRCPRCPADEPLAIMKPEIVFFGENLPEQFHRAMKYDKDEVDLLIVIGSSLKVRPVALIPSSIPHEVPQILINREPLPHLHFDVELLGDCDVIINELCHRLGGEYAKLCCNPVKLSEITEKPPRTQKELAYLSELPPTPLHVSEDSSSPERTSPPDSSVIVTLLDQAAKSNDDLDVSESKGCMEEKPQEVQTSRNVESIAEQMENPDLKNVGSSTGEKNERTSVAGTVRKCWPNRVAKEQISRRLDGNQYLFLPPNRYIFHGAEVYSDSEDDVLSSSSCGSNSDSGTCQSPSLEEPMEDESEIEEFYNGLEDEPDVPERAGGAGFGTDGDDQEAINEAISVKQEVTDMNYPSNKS
UniProt P12956: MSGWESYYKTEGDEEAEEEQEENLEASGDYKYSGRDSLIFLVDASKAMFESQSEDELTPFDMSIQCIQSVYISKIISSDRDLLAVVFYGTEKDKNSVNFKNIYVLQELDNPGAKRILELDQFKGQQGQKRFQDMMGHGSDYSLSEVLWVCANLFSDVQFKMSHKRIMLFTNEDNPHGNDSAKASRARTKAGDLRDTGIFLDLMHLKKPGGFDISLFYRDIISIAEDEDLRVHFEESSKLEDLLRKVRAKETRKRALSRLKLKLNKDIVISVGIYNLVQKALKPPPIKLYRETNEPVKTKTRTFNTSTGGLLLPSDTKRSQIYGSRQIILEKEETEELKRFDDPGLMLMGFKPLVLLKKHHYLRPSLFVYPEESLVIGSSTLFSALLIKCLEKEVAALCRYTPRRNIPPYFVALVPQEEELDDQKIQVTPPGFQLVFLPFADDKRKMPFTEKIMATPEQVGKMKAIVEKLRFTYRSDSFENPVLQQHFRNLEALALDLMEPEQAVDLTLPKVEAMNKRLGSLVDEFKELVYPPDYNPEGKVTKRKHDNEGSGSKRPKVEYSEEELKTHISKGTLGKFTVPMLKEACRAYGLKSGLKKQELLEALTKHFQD

These are yes or no findings as the source states them, for the method shown. Binding seen in cells or lysates may run through a third protein. Some entries that bind do so weakly or less than the wild type.

This experiment deals with SIRT1 (human (endogenous in K562)) (UniProt Q96EB6). In words: co-IP; lysate of K562 cells after etoposide treatment (20 uM, four hours); endogenous proteins precipitated with anti-Ku70 or anti-SIRT1 agarose beads (control IgG alongside), immunoblot for the other protein. (Immunoblotting shows a protein as a band on a membrane.)

As to Ku70 (from UniProt P12956 1-609), the binding entry is “binds”.
